Test results: the supplement of paper PMC7666118
Some of the results follow.

Protein sequences, listed by entry. Tags and fused reporters are not part of them. Lines headed by an entry give the natural chain unless they say otherwise; changes in a name come on top.
UniProt Q9NWB7: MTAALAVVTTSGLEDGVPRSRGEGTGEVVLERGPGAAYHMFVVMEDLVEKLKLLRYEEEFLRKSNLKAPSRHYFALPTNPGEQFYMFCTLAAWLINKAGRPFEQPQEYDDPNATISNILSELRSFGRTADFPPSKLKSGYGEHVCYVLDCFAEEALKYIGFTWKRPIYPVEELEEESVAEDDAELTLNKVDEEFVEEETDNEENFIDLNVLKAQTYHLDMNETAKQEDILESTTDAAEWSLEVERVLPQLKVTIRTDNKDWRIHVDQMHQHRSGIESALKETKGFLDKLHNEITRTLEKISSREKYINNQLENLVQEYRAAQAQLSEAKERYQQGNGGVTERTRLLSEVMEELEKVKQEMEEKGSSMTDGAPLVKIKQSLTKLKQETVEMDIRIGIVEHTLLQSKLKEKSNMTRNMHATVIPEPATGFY
UniProt Q9P2B7: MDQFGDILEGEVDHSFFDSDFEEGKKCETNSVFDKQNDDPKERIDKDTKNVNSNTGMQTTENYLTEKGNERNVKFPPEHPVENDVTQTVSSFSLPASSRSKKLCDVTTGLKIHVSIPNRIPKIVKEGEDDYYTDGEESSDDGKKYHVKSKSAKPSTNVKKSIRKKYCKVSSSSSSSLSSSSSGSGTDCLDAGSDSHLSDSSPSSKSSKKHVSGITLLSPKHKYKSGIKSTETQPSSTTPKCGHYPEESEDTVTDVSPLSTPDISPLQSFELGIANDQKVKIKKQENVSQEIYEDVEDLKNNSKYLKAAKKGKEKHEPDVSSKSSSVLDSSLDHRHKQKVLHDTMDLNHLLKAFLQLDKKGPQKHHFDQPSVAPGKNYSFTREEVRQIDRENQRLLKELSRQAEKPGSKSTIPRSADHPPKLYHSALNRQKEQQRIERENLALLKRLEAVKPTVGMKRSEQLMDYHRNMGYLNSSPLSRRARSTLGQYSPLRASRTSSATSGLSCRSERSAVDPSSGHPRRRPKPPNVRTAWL
UniProt P05161, whole entry: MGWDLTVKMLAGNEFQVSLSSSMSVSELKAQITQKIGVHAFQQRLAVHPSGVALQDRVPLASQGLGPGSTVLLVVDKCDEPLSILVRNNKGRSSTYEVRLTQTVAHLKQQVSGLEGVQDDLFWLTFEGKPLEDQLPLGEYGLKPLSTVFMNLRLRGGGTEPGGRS
UniProt Q8NC69: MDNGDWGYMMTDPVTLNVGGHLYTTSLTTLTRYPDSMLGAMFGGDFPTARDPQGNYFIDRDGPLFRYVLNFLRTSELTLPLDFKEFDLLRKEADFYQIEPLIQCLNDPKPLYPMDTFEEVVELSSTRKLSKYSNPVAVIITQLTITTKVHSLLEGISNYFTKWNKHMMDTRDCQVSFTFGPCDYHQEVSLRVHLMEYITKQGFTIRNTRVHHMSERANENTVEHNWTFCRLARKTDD
UniProt Q9H1K1: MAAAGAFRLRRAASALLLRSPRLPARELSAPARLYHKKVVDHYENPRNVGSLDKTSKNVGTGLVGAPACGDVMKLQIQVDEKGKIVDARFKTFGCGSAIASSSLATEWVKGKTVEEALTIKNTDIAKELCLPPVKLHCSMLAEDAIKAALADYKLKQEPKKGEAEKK
UniProt O00139: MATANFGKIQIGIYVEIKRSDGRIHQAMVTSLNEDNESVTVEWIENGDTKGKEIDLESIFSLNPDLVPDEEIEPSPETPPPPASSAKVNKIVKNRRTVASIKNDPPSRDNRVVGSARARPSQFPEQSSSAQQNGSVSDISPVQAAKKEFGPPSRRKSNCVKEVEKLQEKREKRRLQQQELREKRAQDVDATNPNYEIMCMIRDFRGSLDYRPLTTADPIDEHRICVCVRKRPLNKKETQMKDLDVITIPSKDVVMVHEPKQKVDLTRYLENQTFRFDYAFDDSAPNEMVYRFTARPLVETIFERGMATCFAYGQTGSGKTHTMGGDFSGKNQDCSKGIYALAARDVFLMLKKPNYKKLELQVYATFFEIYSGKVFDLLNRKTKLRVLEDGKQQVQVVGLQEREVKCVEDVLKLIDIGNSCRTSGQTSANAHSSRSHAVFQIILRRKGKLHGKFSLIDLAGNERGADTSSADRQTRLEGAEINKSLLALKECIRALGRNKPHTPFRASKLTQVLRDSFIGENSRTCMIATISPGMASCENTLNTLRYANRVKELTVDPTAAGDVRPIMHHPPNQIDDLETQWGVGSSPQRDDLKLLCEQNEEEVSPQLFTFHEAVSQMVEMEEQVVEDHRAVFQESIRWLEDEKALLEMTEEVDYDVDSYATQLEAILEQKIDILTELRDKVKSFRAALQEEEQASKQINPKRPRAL
UniProt P08648, whole entry: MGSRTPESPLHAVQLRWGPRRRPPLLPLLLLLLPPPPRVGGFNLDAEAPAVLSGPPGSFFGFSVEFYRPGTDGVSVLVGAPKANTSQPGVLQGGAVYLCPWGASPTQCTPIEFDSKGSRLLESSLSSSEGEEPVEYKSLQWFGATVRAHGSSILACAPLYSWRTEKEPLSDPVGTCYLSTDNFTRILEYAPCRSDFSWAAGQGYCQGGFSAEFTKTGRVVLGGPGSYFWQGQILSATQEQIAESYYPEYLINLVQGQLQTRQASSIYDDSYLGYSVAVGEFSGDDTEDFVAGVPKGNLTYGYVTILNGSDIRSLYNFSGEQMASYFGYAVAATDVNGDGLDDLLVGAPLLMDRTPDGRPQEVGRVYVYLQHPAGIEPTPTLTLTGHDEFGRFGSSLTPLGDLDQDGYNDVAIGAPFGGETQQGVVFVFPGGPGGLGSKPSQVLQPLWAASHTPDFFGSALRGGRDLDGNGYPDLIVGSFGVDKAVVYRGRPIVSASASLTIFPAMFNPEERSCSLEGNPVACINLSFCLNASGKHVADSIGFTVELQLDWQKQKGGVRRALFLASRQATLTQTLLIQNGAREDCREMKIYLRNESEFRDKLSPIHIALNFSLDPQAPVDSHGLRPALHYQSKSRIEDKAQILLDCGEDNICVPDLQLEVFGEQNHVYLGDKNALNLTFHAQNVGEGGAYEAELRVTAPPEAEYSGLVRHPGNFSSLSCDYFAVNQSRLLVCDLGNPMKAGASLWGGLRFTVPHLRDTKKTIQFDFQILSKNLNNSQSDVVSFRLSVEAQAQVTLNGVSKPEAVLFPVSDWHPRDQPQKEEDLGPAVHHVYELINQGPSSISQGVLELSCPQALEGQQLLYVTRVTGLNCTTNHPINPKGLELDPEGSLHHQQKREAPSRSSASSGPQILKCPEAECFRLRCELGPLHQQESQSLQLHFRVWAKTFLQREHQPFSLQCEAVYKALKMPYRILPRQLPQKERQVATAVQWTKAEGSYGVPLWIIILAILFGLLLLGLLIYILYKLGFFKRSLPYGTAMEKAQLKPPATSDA
UniProt Q6ZMI0: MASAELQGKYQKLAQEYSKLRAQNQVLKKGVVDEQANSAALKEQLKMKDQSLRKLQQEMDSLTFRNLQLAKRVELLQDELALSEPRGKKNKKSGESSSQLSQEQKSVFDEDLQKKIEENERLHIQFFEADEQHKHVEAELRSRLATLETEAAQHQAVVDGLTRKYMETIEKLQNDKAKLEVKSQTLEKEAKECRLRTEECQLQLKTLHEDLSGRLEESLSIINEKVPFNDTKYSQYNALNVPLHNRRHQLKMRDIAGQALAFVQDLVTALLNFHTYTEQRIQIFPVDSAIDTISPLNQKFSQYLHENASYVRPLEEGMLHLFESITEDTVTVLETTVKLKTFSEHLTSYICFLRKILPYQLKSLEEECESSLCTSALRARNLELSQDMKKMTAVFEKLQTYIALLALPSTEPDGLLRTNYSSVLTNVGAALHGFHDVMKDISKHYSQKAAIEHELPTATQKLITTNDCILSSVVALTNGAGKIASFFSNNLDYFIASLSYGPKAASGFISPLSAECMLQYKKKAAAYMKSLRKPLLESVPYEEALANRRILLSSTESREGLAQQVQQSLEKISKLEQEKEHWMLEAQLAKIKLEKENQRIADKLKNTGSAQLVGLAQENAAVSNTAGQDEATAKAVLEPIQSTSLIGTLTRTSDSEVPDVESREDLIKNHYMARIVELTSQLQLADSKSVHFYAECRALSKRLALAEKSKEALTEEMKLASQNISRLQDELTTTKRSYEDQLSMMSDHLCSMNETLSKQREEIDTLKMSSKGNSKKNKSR
UniProt Q9HCH0: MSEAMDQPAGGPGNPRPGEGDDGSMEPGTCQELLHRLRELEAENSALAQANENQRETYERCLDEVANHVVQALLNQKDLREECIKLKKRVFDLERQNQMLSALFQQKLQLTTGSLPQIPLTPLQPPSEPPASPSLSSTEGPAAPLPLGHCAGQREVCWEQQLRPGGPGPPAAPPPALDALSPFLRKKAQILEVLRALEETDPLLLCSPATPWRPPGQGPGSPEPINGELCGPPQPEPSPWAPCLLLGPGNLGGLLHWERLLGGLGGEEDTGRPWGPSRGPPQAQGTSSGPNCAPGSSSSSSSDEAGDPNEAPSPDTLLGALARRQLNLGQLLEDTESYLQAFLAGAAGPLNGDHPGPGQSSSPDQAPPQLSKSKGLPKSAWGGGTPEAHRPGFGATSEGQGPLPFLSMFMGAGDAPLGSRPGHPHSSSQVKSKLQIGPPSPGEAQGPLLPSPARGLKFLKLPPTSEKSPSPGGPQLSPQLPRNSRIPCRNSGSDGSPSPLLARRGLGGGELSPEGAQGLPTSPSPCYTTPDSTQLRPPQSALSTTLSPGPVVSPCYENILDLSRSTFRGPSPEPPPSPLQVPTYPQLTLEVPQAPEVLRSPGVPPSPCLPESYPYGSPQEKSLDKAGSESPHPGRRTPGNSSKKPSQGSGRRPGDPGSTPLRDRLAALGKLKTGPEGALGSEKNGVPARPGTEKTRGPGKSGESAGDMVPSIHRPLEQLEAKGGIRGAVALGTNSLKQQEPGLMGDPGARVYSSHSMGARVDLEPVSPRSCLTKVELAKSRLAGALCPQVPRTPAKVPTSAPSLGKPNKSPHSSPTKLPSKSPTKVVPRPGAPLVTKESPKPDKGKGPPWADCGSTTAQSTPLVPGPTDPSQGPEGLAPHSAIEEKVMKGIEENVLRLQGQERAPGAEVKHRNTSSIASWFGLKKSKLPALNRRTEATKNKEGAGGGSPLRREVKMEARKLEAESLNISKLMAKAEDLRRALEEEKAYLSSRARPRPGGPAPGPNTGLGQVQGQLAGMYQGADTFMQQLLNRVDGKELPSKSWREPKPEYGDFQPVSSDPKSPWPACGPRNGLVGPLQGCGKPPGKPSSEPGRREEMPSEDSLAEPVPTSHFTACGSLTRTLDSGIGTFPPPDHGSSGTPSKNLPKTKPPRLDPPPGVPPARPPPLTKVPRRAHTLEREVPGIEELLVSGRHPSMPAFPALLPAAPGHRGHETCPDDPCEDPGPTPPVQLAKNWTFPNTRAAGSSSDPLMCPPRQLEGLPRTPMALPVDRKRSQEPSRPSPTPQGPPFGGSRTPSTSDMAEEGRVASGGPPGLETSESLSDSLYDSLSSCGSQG
UniProt Q8TEX9: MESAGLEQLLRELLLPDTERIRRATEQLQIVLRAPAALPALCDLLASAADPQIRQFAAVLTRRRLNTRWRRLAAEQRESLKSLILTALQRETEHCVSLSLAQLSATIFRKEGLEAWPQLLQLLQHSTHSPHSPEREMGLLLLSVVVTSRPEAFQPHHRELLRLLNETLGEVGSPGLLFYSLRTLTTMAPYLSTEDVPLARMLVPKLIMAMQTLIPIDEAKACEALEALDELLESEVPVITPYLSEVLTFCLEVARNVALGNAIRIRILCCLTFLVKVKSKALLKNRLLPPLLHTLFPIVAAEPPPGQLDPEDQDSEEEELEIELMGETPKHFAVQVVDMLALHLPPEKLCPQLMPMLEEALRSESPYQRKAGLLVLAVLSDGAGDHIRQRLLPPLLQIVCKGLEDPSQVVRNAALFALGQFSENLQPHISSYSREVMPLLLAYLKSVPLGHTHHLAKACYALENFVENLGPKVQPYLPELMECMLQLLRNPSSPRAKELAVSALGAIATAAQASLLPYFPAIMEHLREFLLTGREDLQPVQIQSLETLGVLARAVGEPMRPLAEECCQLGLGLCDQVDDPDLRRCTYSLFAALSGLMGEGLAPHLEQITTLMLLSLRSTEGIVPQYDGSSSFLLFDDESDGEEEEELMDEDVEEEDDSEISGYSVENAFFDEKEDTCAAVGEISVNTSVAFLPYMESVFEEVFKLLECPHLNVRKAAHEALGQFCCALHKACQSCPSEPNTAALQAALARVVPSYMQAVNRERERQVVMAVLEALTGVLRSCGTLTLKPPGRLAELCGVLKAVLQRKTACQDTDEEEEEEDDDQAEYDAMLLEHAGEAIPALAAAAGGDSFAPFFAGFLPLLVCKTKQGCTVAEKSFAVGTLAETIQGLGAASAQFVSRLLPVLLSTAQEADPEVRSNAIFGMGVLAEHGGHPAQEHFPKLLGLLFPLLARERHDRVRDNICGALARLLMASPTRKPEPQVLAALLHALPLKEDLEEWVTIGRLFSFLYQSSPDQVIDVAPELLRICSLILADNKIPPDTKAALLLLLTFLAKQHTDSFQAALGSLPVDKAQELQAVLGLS

Compound: COc1ccc(Cn2ccc3cc(C)c(C(=O)NO)cc32)cc1
Assay: dose-dependent thermal stabilisation call (2D-TPP, DLPTP, 10% FDR) (binary (1 = stabilised)); higher = stabilised by the compound
Details: system: HL-60 intact cells; concentration range 0.04-10 µM
Method: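 2D thermal proteome profiling in intact HL-60 cells treated with BRD-3811 (0, 0.04, 0.29, 2, 10 uM) for 90 min at 37 C, then heated 3 min at one of 12 temperatures (42-63.9 C). Soluble protein was quantified by TMT10 MS. The value is the DLPTP call of the paper: dose-dependent thermal stabilisation over all temperatures at 10% FDR (F-test of a dose-response against a flat model); one experiment, one call per tested protein.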

Target	dose-dependent thermal stabilisation call
KIAA0323 (UniProt O15037)	inactive: 0
IKZF1 (UniProt Q13422)	inactive: 0
IMPA1 (UniProt P29218)	inactive: 0
ITPA (UniProt Q9BY32)	inactive: 0
IFT57 (UniProt Q9NWB7)	inactive: 0
ITPK1 (UniProt Q13572)	inactive: 0
KBTBD8 (UniProt Q8NFY9)	inactive: 0
JMJD1A (UniProt Q9Y4C1)	inactive: 0
KLHL18 (UniProt O94889)	inactive: 0
ICA1 (UniProt Q05084)	inactive: 0
ITSN2 (UniProt Q9NZM3)	inactive: 0
IVNS1ABP (UniProt Q9Y6Y0)	inactive: 0
ITGA6 (UniProt P23229)	inactive: 0
KIAA1430 (UniProt Q9P2B7)	inactive: 0
ISG15 (UniProt P05161)	inactive: 0
INTS2 (UniProt Q9H0H0)	inactive: 0
KCNAB2 (UniProt Q13303)	inactive: 0
IMPAD1 (UniProt Q9NX62)	inactive: 0
KIAA0406 (UniProt O43156)	inactive: 0
KCTD6 (UniProt Q8NC69)	inactive: 0

Target	dose-dependent thermal stabilisation call
ISOC2 (UniProt Q96AB3)	inactive: 0
KIF3B (UniProt O15066)	inactive: 0
KPNA4 (UniProt O00629)	inactive: 0
KIF4A (UniProt O95239)	inactive: 0
ISCU (UniProt Q9H1K1)	inactive: 0
IFT172 (UniProt Q9UG01)	inactive: 0
KIF2A (UniProt O00139)	inactive: 0
KIF11 (UniProt P52732)	inactive: 0
INTS12 (UniProt Q96CB8)	inactive: 0
ITGA5 (UniProt P08648)	inactive: 0
KLRAQ1 (UniProt Q6ZMI0)	inactive: 0
IL2RG (UniProt P31785)	inactive: 0
KIAA0319L (UniProt Q8IZA0)	inactive: 0
KDSR (UniProt Q06136)	inactive: 0
KIAA1602 (UniProt Q9HCH0)	inactive: 0
IPO4 (UniProt Q8TEX9)	inactive: 0
ICT1 (UniProt Q14197)	inactive: 0
KIAA1219 (UniProt Q86X10)	inactive: 0
IMPDH2 (UniProt P12268)	inactive: 0
KIAA1804 (UniProt Q5TCX8)	inactive: 0

Not a retest: entries from further up.
Target	dose-dependent thermal stabilisation call
IKZF1 (UniProt Q13422)	inactive: 0
IMPA1 (UniProt P29218)	inactive: 0
ITPA (UniProt Q9BY32)	inactive: 0
